Measurements from PMC13043812.
These are yes or no findings as the source states them, for the method shown. In cells and extracts the contact can be indirect. A yes stands for co-enrichment or nearness to the bait. Other partners may have been found.

Protein sequences, listed by entry. Tags and fused reporters are not part of them. Lines headed by an entry give the natural chain unless they say otherwise; changes in a name come on top.
UniProt P96874: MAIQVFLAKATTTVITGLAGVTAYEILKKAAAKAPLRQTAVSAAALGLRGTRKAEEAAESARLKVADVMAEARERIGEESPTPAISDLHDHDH

B1: Citrate (Pro-3S)-lyase beta subunit (protein, UniProt P9WPE1 1-273)
chain: MNLRAAGPGWLFCPADRPERFAKAAAAADVVILDLEDGVAEAQKPAARNALRDTPLDPERTVVRINAGGTADQARDLEALAGTAYTTVMLPKAESAAQVIELAPRDVIALVETARGAVCAAEIAAADPTVGMMWGAEDLIATLGGSSSRRADGAYRDVARHVRSTILLAASAFGRLALDAVHLDILDVEGLQEEARDAAAVGFDVTVCIHPSQIPVVRKAYRPSHEKLAWARRVLAASRSERGAFAFEGQMVDSPVLTHAETMLRRAGEATSE
B2: Rv0887c (protein, UniProt P9WKQ3 1-170)
chain: MSLSGPRIGRAHQQQGDTMAINVEPALSPHLVVDDAASAIDFYVKAFDAVELGRVPGPDGKLIHAALRINGFTVMLNDDVPQMCGGKSMTPTSLGGTPVTIHLTVTDVDAKFQRALNAGATVVTALEDQLWGDRYGVVADPFGHHWSLGQPVREVNMDEIQAAMSSQGDG

Molecular target: PacL1 protein fused to a C-terminal ALFA tag (M. tuberculosis) (UniProt P96874)
Test: proximity labelling

Row | Binder | binding
1 | B1 | binds
2 | B2 | binds
